Results deposited as PubChem BioAssay AID1259308 (NCATS, 2017).
Shown is an unselected part of about 59,000 deposited reagents. About 1,510 of them (2.6%) were called active. 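Calls use total luciferase alone and ignore viability, so some active siRNAs may act by altering cell number.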 Unmarked entries are inactive. Reagents against one gene are numbered here.

- Assay: 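Candidate targets for better recombinant protein yield in mammalian cells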 (primary screen)
- Cell system: human HEK293 embryonic kidney cells stably expressing firefly luciferase (HEK-CMV-Luc2-Hygro)
- Reagents: single siRNA against human genes, 0.8 pmol siRNA per well
- Timing: 72 h
- Measurement: 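Reporter luminescence and viable-cell signal on separate replicate plates, given as percent of non-targeting control and median/MAD z-scores, plus per-cell luciferase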
- Reading the numbers: total luciferase, z-score and total luciferase, % of control: higher = more reporter protein produced; luciferase per cell, z-score: higher = more reporter output per viable cell; viable cells, % of control: higher = more viable cells
- Hit rule: 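An siRNA counts as active if its total luciferase robust z-score exceeds 3; genes with two or more such siRNAs out of three were retested with fresh siRNAs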
- Calls: active = raised luciferase; inactive = no rise

| Target gene | reagent no. | total luciferase, z-score | total luciferase, % of control | luciferase per cell, z-score | viable cells, % of control |
| --- | --- | --- | --- | --- | --- |
| UNC13D | 1 | -1.1 | 60 | -0.238 | 71.4 |
| UNC13D | 2 | -1.09 | 60.1 | -0.426 | 75.2 |
| UNC13D | 3 | 0.024 | 82.4 | 0.376 | 83.4 |
| M1AP | 1 | 0.332 | 88.5 | -0.193 | 104 |
| M1AP | 2 | 0.835 | 98.5 | 0.45 | 97.8 |
| M1AP | 3 | -0.453 | 72.9 | -0.273 | 87.5 |
| DDR1 | 1 | -0.335 | 75.2 | -1.14 | 113 |
| DDR1 | 2 | 0.0565 | 83 | 0.478 | 81.8 |
| DDR1 | 3 | -0.783 | 66.3 | -0.904 | 94 |
| NAPB | 1 | -0.43 | 73.3 | -0.431 | 91.8 |
| NAPB | 2 | 0.94 | 101 | 2.09 | 64.8 |
| NAPB | 3 | -0.331 | 75.3 | -0.261 | 90.1 |
| DMRTA2 | 1 | 0.458 | 91 | -0.0677 | 104 |
| DMRTA2 | 2 | 0.0495 | 82.9 | -0.0798 | 94.6 |
| DMRTA2 | 3 | 1.18 | 105 | 0.431 | 105 |
| SPTBN1 | 1 | 0.474 | 91.3 | 0.124 | 98.8 |
| SPTBN1 | 2 | -0.132 | 79.3 | 0.0161 | 88.2 |
| SPTBN1 | 3 | 1.75 | 117 | 1.43 | 89.6 |
| TELO2 | 1 | -2.12 | 39.7 | -2.58 | 87.5 |
| TELO2 | 2 | -2.12 | 39.7 | -2.86 | 94.2 |
| TELO2 | 3 | 0.295 | 87.8 | -0.341 | 107 |
| SH3TC2-DT | 1 | 0.88 | 99.4 | 0.79 | 90.2 |
| SH3TC2-DT | 2 | 0.228 | 86.4 | -0.227 | 103 |
| SH3TC2-DT | 3 | 0.779 | 97.4 | 1.76 | 68.5 |
| SH3TC2-DT | 4 | 0.184 | 85.5 | 0.19 | 90.9 |
| SH3TC2-DT | 5 | -0.356 | 74.8 | -0.179 | 87.6 |
| SH3TC2-DT | 6 | -0.523 | 71.5 | 0.391 | 72.1 |
| FOLR3 | 1 | -0.571 | 70.5 | -0.495 | 89.8 |
| FOLR3 | 2 | -0.118 | 79.5 | -0.243 | 94.7 |
| FOLR3 | 3 | -0.0247 | 81.4 | -0.181 | 95.4 |
| TMEM252 | 1 | 2.27 | 127 | 1.53 | 94.9 |
| TMEM252 | 2 | 0.674 | 95.3 | 1.21 | 77.5 |
| TMEM252 | 3 | 1.42 | 110 | 0.308 | 114 |
| CASS4 | 1 | 0.152 | 84.9 | 1.46 | 64.5 |
| CASS4 | 2 | 0.348 | 88.8 | -0.261 | 106 |
| CASS4 | 3 | 1.12 | 104 | 0.493 | 102 |
| VAV3 | 1 | -2.48 | 32.5 | -2.82 | 76.4 |
| VAV3 | 2 | 1.45 | 111 | 1.08 | 93.2 |
| VAV3 | 3 | 2.26 | 127 | 2.06 | 82.5 |
| FBXL21P | 1 | 0.264 | 87.1 | 0.116 | 94.5 |
| FBXL21P | 2 | -0.449 | 73 | -0.637 | 96.4 |
| FBXL21P | 3 | -0.00427 | 81.8 | -0.0746 | 93.2 |
| CCDC81 | 1 | 4.5 (active) | 171 | 4.49 | 58.6 |
| CCDC81 | 2 | 0.932 | 100 | 0.383 | 101 |
| CCDC81 | 3 | -0.229 | 77.3 | -0.188 | 90.8 |
| SPATA22 | 1 | -0.22 | 77.5 | -0.692 | 104 |
| SPATA22 | 2 | -1.16 | 58.9 | -1.73 | 104 |
| SPATA22 | 3 | -1.23 | 57.5 | -1.75 | 102 |
| BFAR | 1 | 0.93 | 100 | 1.35 | 78.6 |
| BFAR | 2 | 2 | 122 | 1.12 | 101 |
| BFAR | 3 | 0.623 | 94.3 | 0.226 | 99.3 |
| POTED | 1 | -0.768 | 66.6 | -0.852 | 93.1 |
| POTED | 2 | -0.854 | 64.9 | -1.29 | 102 |
| POTED | 3 | -1.76 | 46.8 | -0.846 | 65.4 |
| TMF1 | 1 | -0.429 | 73.4 | -0.549 | 94.7 |
| TMF1 | 2 | 0.0698 | 83.3 | 0.767 | 76 |
| TMF1 | 3 | 1.14 | 105 | 1.69 | 74.8 |
